Data published in PubChem BioAssay AID624134 (Broad Institute, 2012).
Hit rate of the full screen: of about 1,600 compounds, about 1,100 (69%) were called active. The set was probably picked from earlier hits. This is a selection; strong and weak results do not stand in their true shares. Entries with a potency or affinity are not part of this list. Results filed as inconclusive are left out.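 Rule for the calls: active = signal drop with fitted half-maximal concentration no higher than twice the top valid tested concentration; inconclusive = flat curve with 30 to 70% signal loss, or poor fit; inactive = the rest, including signal rises and flat curves within 30%.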

Assay: HepG2 cell cytotoxicity, dose response, cytotoxicity control for Shn3 inhibitor project, CellTiter-Glo, cherry-picked (AID 624134);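 note: 0% = median of neutral control wells and -100% = median of positive control wells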
Conditions: HepG2 viability, CellTiter-Glo ATP luminescence, 48 h; at 35 µM (top of the series)

Question: With `CC1=CC2OC3CC4OC(=O)C=CC=CC(=O)OCCC(C)C(O)C(=O)OCC2(CC1O)C4(C)C31CO1` (stereo not given) as the compound, how does the activity change, negative = cytotoxicity read?
Answer: Its activity change, negative = cytotoxicity is inactive: -24.9%.

Question: Which activity change, negative = cytotoxicity does the source give for `CC(=O)O[C@H]1CCC2C3CC[C@H]4[C@@H](O)[C@H](O)CC[C@]4(C)C3CC[C@@]21C` (stereo not given in full) here?
Answer: Its activity change, negative = cytotoxicity is inactive: -9.85%.

Question: For `C[C@]12CCC3C(CC[C@H]4C[C@H](O)CC[C@]34C)C1CCC2=O` (stereo not given in full), which activity change, negative = cytotoxicity is on record?
Answer: Its activity change, negative = cytotoxicity is inactive: -10.3%.

Question: With `COc1ccc(CC2NCC(O)C2OC(C)=O)cc1` (stereo not given) as the compound, how does the activity change, negative = cytotoxicity read?
Answer: The activity change, negative = cytotoxicity was inactive: -27.9%.

Question: For `CC1=CC2OC3CC4OC(=O)C=CC=CC(C(C)O)OCC(O)C(C)CC(=O)OCC2(CC1O)C4(C)C31CO1` (stereo not given), which activity change, negative = cytotoxicity is on record?
Answer: The activity change, negative = cytotoxicity was inactive: -36.1%.

Question: Which activity change, negative = cytotoxicity does the source give for `COC(=O)C12OCC34C(CC5C(C)=C(O)C(=O)CC5(C)C3C(O)C1O)OC(=O)C(OC(=O)/C=C(\C)C(C)C)C24` (stereo not given) here?
Answer: The activity change, negative = cytotoxicity was inactive: -30%.

Question: With `CCOC(=O)C1C(=O)NC2(C)CC1c1cc(OC)ccc1O2` (stereo not given) as the compound, how does the activity change, negative = cytotoxicity read?
Answer: The activity change, negative = cytotoxicity was inactive: 4.96%.

Question: Which activity change, negative = cytotoxicity does the source give for `COc1cccc2c1O[C@H]1C(=O)CC[C@H]3CN(C)CCC231` (stereo not given in full) here?
Answer: The activity change, negative = cytotoxicity was inactive: 4.28%.

Question: Which activity change, negative = cytotoxicity does the source give for `C[C@@H]1C[C@@H]([C@H](O)CC2CC(=O)NC(=O)C2)C(=O)[C@@H](C)C1` here?
Answer: The activity change, negative = cytotoxicity was inactive: -29.7%.

Question: Which activity change, negative = cytotoxicity does the source give for `CC1=CC2OC3CC4OC(=O)C=CC=CC(C(C)O)OCC(O)C5(C)OC5C(=O)OCC2(CC1O)C4(C)C31CO1` (stereo not given) here?
Answer: Its activity change, negative = cytotoxicity is inactive: -27.1%.

Question: With `CC1CC(C)(O)CC(C(O)CC2CC(=O)NC(=O)C2)C1=O` (stereo not given) as the compound, how does the activity change, negative = cytotoxicity read?
Answer: Its activity change, negative = cytotoxicity is inactive: -21.6%.

Question: With `COC(=O)C1=C(c2ccc(OCc3ccccc3)cc2)C[C@@H]2CC[C@H]1N2C(=O)NCc1ccc(OC)c(OC)c1` as the compound, how does the activity change, negative = cytotoxicity read?
Answer: The activity change, negative = cytotoxicity was inactive: -13.6%.

Question: Which activity change, negative = cytotoxicity does the source give for `CC(C)N1CCN(Cc2c[nH]c3ccccc23)CC1CCO` (stereo not given) here?
Answer: The activity change, negative = cytotoxicity was inactive: -3.14%.

Question: Which activity change, negative = cytotoxicity does the source give for `CCN1C[C@]2(COC)CC[C@H](OC)[C@@]34C1[C@]1(OCO[C@@]15C[C@H](OC)[C@H]1C[C@@H]3[C@@H]5[C@H]1OC)[C@@H](O)[C@H]24` here?
Answer: The activity change, negative = cytotoxicity was inactive: 5.27%.

Question: Which activity change, negative = cytotoxicity does the source give for `CC(=O)OC1(C)CC(C)C(=O)C(C(O)CC2CC(=O)NC(=O)C2)C1` (stereo not given) here?
Answer: Its activity change, negative = cytotoxicity is inactive: -14.8%.

Question: Which activity change, negative = cytotoxicity does the source give for `CC(C)(O)/C=C/C(=O)C(C)(O)C1C(O)CC2(C)C3CC=C4C(C=C(O)C(=O)C4(C)C)C3(C)C(=O)CC12C` (stereo not given) here?
Answer: The activity change, negative = cytotoxicity was inactive: -20.6%.

Question: For `COC(=O)C1=C(c2ccc(F)cc2OCc2ccccc2)C[C@@H]2CC[C@H]1N2C(=O)NC1Cc2ccccc2C1`, which activity change, negative = cytotoxicity is on record?
Answer: Its activity change, negative = cytotoxicity is inactive: -14.5%.

Question: Which activity change, negative = cytotoxicity does the source give for `CCC(C)(O)C(=O)OC1C(=O)OC2CC3C(C)=CC(=O)C(O)C3(C)C3C4(O)OCC23C1C(C)C4O` (stereo not given) here?
Answer: Its activity change, negative = cytotoxicity is inactive: -21.9%.

Question: With `COC(=O)C1=C(c2ccc(OCc3ccccc3)cc2)C[C@@H]2CC[C@H]1N2C(=O)NCCCCc1ccccc1` as the compound, how does the activity change, negative = cytotoxicity read?
Answer: The activity change, negative = cytotoxicity was inactive: -7.07%.

Question: With `COC(=O)C1=C(c2ccc3ccccc3c2)C[C@@H]2CC[C@H]1N2C(=O)NCC1CC1` as the compound, how does the activity change, negative = cytotoxicity read?
Answer: Its activity change, negative = cytotoxicity is inactive: -2.69%.
